The source of these data is PMC2737637.

Amino acid sequences for entries named in this document (tags omitted).
UniProt Q06413: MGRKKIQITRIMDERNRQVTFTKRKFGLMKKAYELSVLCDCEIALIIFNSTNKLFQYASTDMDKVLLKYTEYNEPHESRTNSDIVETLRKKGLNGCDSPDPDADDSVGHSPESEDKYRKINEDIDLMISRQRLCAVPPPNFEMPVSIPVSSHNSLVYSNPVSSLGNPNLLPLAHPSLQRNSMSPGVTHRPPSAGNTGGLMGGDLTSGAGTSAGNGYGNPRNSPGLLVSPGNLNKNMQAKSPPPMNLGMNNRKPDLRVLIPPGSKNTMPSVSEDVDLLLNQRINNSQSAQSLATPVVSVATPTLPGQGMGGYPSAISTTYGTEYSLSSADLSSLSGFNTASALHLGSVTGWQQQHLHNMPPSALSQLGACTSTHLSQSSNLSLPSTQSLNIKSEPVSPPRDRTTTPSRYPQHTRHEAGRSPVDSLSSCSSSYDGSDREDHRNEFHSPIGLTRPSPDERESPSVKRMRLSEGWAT
UniProt Q8CFN5: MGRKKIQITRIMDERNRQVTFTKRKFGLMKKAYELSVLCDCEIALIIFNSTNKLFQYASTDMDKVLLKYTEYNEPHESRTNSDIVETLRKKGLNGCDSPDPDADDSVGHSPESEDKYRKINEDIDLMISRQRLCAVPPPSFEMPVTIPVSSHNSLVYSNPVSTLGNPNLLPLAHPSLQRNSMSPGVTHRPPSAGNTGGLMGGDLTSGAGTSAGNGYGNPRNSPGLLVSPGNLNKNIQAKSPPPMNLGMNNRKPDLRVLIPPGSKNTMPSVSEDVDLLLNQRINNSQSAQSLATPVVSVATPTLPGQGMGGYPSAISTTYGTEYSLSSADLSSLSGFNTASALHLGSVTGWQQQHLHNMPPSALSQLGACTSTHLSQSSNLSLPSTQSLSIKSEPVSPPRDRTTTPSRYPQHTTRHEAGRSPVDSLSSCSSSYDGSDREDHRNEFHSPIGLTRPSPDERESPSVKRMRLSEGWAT

Substitutions are numbered along the chain they refer to. Like-named read-outs stand apart in the source and are kept apart here. Results are given in words; binding and its absence hold for the method and conditions named. Binding seen in cells or lysates may run through a third protein. Some binding calls cover weakened binding; strength is not graded here. For some assays here: Sequences can lack the tags named with a protein.

For assay [1], the target named is T1, V5-lipin-1α (UniProt Q91ZP3).
T1 sequence: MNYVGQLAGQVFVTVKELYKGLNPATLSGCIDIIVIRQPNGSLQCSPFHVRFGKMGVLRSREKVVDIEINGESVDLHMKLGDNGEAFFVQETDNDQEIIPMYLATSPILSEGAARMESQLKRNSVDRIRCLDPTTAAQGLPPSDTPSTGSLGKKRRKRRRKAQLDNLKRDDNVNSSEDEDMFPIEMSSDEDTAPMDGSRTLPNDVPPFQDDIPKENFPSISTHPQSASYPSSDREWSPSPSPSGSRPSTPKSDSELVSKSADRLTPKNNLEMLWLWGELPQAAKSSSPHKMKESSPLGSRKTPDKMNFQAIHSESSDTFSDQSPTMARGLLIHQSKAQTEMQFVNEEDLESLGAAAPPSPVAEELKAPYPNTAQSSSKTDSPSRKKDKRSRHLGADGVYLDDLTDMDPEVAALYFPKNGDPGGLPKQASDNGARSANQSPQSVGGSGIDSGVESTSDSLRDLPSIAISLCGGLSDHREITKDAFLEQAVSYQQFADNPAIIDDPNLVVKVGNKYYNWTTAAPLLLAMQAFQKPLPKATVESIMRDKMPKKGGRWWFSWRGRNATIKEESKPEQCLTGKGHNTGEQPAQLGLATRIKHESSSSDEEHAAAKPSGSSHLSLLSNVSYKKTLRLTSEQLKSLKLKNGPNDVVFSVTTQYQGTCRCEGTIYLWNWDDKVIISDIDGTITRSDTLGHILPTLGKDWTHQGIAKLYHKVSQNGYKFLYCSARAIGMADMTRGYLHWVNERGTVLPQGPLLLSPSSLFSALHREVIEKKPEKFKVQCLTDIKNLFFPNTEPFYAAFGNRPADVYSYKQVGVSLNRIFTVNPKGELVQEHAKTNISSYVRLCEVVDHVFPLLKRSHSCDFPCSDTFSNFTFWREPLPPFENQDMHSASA
The assay can be described thus: co-IP; HEK293A cells co-transfected, harvested after 48 h; lysis buffer 50 mM Tris pH 7.5, 250 mM NaCl, 1 mM EDTA, 1 mM EGTA, 0.5% Triton X-100, 10% glycerol; immunoprecipitation with anti-V5 agarose, five washes with lysis buffer; immunoblotting with anti-Gal4 or anti-Myc antibody.

Assay [2] addresses T2, V5-lipin-1α-2KR (UniProt Q91ZP3).
T2 sequence: T1 sequence with K566R, K596R
The assay is described as above.

Assay [3] deals with T3, lipin-1α (endogenous lipin-1 of mouse brain extract) (mouse (endogenous in mouse brain)) (UniProt Q91ZP3).
T3 sequence: T1 sequence
The assay can be described thus: co-IP; mouse brain extract immunoprecipitated with anti-lipin-1 antibody or a control IgG; MEF2C in the immunoprecipitates detected by immunoblotting.

Assay [4] has as its target T1, V5-lipin-1α. The assay can be described thus: co-IP; HEK293A cells co-transfected, harvested after 48 h; lysis buffer 50 mM Tris pH 7.5, 250 mM NaCl, 1 mM EDTA, 1 mM EGTA, 0.5% Triton X-100, 10% glycerol; immunoprecipitation with anti-V5 agarose, five washes with lysis buffer; immunoblotting with anti-Gal4 or anti-Myc antibody. The source holds these as a separate data set.

Assay [5] deals with T2, V5-lipin-1α-2KR. The description is as above. This is another data set of the same source.

For the molecule Gal4-MEF2C (from UniProt Q06413 1-473), the binding result with V5-lipin-1α [1] and with V5-lipin-1α-2KR [2] was “binds” each time.
In the case of “endogenous MEF2C (mouse brain extract) (from UniProt Q8CFN5 1-474)”, in assay [3], the binding entry is reported as “binds”.

B1: Myc-PGC-1α (protein, UniProt O70343 1-797)
chain: MAWDMCSQDSVWSDIECAALVGEDQPLCPDLPELDLSELDVNDLDTDSFLGGLKWCSDQSEIISNQYNNEPANIFEKIDEENEANLLAVLTETLDSLPVDEDGLPSFDALTDGAVTTDNEASPSSMPDGTPPPQEAEEPSLLKKLLLAPANTQLSYNECSGLSTQNHAANHTHRIRTNPAIVKTENSWSNKAKSICQQQKPQRRPCSELLKYLTTNDDPPHTKPTENRNSSRDKCASKKKSHTQPQSQHAQAKPTTLSLPLTPESPNDPKGSPFENKTIERTLSVELSGTAGLTPPTTPPHKANQDNPFKASPKLKPSCKTVVPPPTKRARYSECSGTQGSHSTKKGPEQSELYAQLSKSSGLSRGHEERKTKRPSLRLFGDHDYCQSLNSKTDILINISQELQDSRQLDFKDASCDWQGHICSSTDSGQCYLRETLEASKQVSPCSTRKQLQDQEIRAELNKHFGHPCQAVFDDKSDKTSELRDGDFSNEQFSKLPVFINSGLAMDGLFDDSEDESDKLSYPWDGTQPYSLFDVSPSCSSFNSPCRDSVSPPKSLFSQRPQRMRSRSRSFSRHRSCSRSPYSRSRSRSPGSRSSSRSCYYYESSHYRHRTHRNSPLYVRSRSRSPYSRRPRYDSYEAYEHERLKRDEYRKEHEKRESERAKQRERQKQKAIEERRVIYVGKIRPDTTRTELRDRFEVFGEIEECTVNLRDDGDSYGFITYRYTCDAFAALENGYTLRRSNETDFELYFCGRKQFFKSNYADLDTNSDDFDPASTKSKYDSLDFDSLLKEAQRSLRR
B1: the binding result with V5-lipin-1α [4] and with V5-lipin-1α-2KR [5] was “binds” in each case.
